No constants are given. Whether binding was seen depends on the method and setting. Binding seen in cells or lysates may run through a third protein. Binding calls can cover weak binding; strength is not graded here.

The chains behind the UniProt entries cited, without tags or fusion partners. Where a name states a change or a piece, a line headed by the entry shows the natural chain unless it says otherwise. A line that says so, or that is headed by a name, gives the form on record, which may keep a tag or linker.
soluble Fms-like tyrosine kinase-1 (human (endogenous in serum)) (P17948, form named): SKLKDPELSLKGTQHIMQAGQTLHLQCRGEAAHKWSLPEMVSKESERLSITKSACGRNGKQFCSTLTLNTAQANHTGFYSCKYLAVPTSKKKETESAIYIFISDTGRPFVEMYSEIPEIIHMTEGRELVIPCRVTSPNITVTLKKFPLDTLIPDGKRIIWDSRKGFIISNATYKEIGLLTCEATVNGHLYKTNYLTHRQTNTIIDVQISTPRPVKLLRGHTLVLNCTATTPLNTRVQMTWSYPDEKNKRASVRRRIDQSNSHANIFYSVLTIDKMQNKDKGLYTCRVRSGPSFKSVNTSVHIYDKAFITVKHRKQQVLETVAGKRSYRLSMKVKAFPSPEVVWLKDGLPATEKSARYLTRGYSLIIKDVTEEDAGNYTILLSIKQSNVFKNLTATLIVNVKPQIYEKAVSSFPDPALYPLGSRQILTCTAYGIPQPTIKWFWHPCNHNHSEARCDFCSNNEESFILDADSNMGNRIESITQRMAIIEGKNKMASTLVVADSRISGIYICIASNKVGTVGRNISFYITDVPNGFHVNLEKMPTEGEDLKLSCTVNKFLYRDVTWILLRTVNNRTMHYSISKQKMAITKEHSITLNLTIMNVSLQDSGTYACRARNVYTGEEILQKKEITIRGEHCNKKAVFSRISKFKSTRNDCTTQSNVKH
UniProt P02647: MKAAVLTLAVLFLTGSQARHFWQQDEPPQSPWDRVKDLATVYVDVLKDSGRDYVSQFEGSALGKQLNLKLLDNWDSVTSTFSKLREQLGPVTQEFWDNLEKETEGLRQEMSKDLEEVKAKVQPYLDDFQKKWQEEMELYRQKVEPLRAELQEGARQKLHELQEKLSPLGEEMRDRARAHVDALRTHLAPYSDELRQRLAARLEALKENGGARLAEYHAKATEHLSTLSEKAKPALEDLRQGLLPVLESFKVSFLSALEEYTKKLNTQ

Assay [1] deals with T1, placental growth factor (human (endogenous in serum)) (UniProt P49763).
T1 sequence: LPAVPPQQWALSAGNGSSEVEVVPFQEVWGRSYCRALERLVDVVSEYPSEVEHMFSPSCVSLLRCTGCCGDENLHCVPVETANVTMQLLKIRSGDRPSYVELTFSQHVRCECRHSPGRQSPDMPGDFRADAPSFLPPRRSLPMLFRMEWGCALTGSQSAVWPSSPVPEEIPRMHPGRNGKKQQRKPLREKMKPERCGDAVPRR
The assay is described as follows: co-IP; anti-PlGF or anti-Flt-1 (2 ug/mL) added to a serum pool for 30 minutes at room temperature, captured by Dynabeads Streptavidin, immunoblotting of PlGF, sFlt-1, CD9, ApoA-I and ApoB.

Assay [2] concerns the target soluble Fms-like tyrosine kinase-1 (human (endogenous in serum)) (UniProt P17948). Described as above.

Turning to “apolipoprotein A-I (from UniProt P02647)”, the binding entry in assay [1] and in assay [2] was “binds” each time.
Turning to “apolipoprotein B (human (endogenous in serum))”, in assay [1], the binding result is listed as “binds”.

(Values after paper PMC11404752.)
